We go through one molecule from article PMC9418238.

Sequences of proteins named here, by UniProt entry; tags and fusion partners are left off. A change or cut given only in a name is not applied to a line headed by its entry.
UniProt Q7Z434: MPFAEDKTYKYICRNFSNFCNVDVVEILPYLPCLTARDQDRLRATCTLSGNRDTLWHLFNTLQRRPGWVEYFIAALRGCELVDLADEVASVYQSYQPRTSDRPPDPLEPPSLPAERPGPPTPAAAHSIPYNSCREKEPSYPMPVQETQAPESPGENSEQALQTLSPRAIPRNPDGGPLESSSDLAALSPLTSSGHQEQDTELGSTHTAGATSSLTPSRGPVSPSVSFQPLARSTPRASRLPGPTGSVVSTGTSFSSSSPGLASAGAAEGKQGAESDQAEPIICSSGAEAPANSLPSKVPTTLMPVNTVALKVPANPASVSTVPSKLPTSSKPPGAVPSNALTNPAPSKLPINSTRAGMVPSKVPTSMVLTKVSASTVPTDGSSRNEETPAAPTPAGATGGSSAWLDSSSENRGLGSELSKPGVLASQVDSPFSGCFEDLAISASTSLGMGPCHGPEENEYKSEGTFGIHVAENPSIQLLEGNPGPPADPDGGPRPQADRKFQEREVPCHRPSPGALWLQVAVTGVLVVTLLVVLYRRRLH

No constants are given. Whether binding was seen depends on the method and setting. Binding calls can cover weak binding; strength is not graded here. Where a sequence is shown, tags or fusion partners need not be part of it.

The target in the experiment is His-MAVS recombinant protein (human) (UniProt Q7Z434). Kind of experiment: pull-down; recombinant GST-PRMT9 and His-MAVS incubated in vitro; both purified.

B1: GST-PRMT9 recombinant protein (enzyme, UniProt Q6P2P2-1 1-845)
chain: MSNSRPRSRRDAGGGAGAAGRDELVSRSLQSAEHCLGVQDFGTAYAHYLLVLSLAPELKHDVKETFQYTLFRWAEELDALSRIQDLLGCYEQALELFPDDEVICNSMGEHLFRMGFRDEAAGYFHKAVKLNPDFSDAKENFYRVANWLVERWHFIMLNDTKRNTIYNAAIQKAVCLGSKSVLDIGAGTGILSMFAKKAGAHSVYACELSKTMYELACDVVAANKMEAGIKLLHTKSLDIEIPKHIPERVSLVVTETVDAGLFGEGIVESLIHAWEHLLLQPKTKGESANCEKYGKVIPASAVIFGMAVECAEIRRHHRVGIKDIAGIHLPTNVKFQSPAYSSVDTEETIEPYTTEKMSRVPGGYLALTECFEIMTVDFNNLQELKSLATKKPDKIGIPVIKEGILDAIMVWFVLQLDDEHSLSTSPSEETCWEQAVYPVQDLADYWIKPGDHVMMEVSCQDCYLRIQSISVLGLECEMDVAKSFTQNKDLLSLGNEAELCSALANLQTSKPDAVEQTCILESTEIALLNNIPYHEGFKMAMSKVLSSLTPEKLYQTMDTHCQNEMSSGTGQSNTVQNILEPFYVLDVSEGFSVLPVIAGTLGQVKPYSSVEKDQHRIALDLISEANHFPKETLEFWLRHVEDESAMLQRPKSDKLWSIIILDVIEPSGLIQQEIMEKAAISRCLLQSGGKIFPQYVLMFGLLVESQTLLEENAVQGTERTLGLNIAPFINQFQVPIRVFLDLSSLPCIPLSKPVELLRLDLMTPYLNTSNREVKVYVCKSGRLTAIPFWYHMYLDEEIRLDTSSEASHWKQAAVVLDNPIQVEMGEELVLSIQHHKSNVSITVKQ
As for B1, the binding entry is “binds”.
